Experimental data taken from patent publication US7002010B2, “Process for the preparation of morpholinones as light stabilizers” (Ciba Specialty Chemicals Corporation, priority 2000, dated 2006).

Test: Discoloration of powder coatings based on a carboxy-functional polyester, cured in electric and gas ovens (yellowness index)
Conditions: 0.60% stabilizer rel. to components 1 to 5, low YI = little discoloration
Experimental: To prepare the powder coating composition based on a carboxy-functional polyester, components 1 to 6 (formulation without additives) or components 1 to 7 (formulation containing the stabilizers) are employed in the sequence indicated (cf. Table 3).
The components weighed out in this way are mixed using a planetary stirrer. The mixture is then extruded on a prism extruder at 300 revolutions/minute and at 100° C. and is rolled out. The powder coating composition is coarsely comminuted using a bench cutter and is ground in a Retsch ZM-1 ultracentrifugal mill with a 0.75 mm annular-perforation screen at 15,000 revolutions/minute. Finally, the powder is passed through a 30 μm screen on a centrifugal screening machine.
The finished powder coating composition is sprayed electrostatically to a coat thickness of 70 lam onto aluminium panels using an ESB-Wagner corona cup gun at 60 kV. Some of the coated panels are cured at 180° C. for 90 minutes in an electric oven. The remaining coated panels are cured at 180° C. for 45 minutes in a gas oven with an NO2 content of 20 ppm. The yellowness index (YI) of the samples is determined in accordance with ASTM D 1925-70. Low YI values denote little discoloration, high YI values denote severe discoloration of the samples.

CC(CO)(COC(C)(C)C)NC(C)(C)C(=O)[O-].[Na+] (centres unmarked) [Compound 201, sodium salt of 2-(2-tert-butoxy-1-hydroxymethyl-1-methyl-ethylamino)-2-methyl-propionic acid]
Yellowness index after 90 minutes (ASTM D 1925-70) (curing 45 minutes in a gas oven at 180° C., NO2 content 20 ppm): 3.4 | Yellowness index after 90 minutes (ASTM D 1925-70) (curing 90 minutes in an electric oven at 180° C.): 2.8
